Experimental data: article PMC8667318

Sequences of proteins named here, by UniProt entry; tags and fusion partners are left off. A change or cut given only in a name is not applied to a line headed by its entry. Residues count along the entry.
UniProt Q99705: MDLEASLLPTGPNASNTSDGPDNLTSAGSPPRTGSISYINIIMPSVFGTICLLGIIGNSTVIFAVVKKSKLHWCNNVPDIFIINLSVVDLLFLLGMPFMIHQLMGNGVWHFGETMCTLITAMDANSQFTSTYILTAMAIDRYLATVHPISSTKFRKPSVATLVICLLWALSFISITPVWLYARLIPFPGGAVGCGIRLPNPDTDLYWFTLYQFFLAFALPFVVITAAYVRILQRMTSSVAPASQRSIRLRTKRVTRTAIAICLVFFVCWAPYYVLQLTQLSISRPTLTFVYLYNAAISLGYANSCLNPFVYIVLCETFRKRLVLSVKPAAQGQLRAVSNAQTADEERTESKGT
UniProt P01127, residues 82-190: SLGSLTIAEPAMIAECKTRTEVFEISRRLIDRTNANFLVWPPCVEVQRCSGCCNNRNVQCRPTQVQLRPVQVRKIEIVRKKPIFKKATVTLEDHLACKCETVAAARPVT

Target: Recombinant human MCHR1 Protein (human) (UniProt Q99705)
Test: far-Western, overlay or dot blot; western ligand blot: indicated amounts of recombinant human MCHR1 electrophoresed under non-reducing conditions, transferred to nitrocellulose, incubated 1 hour with biotinylated PDGF-BB, detected with streptavidin-HRP; both purified

binding: binds
Substance: biotinylated PDGF-BB (from UniProt P01127 82-190) (ligand)

Results are given in words; binding and its absence hold for the method and conditions named. Binding can be weak; no strength is given.
